Test results taken from article PMC8075410.
No constants are given. Whether binding was seen depends on the method and setting. Binding seen in cells or lysates may run through a third protein. Tags and fused reporters may be left off the sequences shown.

Sequences of proteins named here, by UniProt entry; tags and fusion partners are left off.
UniProt P37238: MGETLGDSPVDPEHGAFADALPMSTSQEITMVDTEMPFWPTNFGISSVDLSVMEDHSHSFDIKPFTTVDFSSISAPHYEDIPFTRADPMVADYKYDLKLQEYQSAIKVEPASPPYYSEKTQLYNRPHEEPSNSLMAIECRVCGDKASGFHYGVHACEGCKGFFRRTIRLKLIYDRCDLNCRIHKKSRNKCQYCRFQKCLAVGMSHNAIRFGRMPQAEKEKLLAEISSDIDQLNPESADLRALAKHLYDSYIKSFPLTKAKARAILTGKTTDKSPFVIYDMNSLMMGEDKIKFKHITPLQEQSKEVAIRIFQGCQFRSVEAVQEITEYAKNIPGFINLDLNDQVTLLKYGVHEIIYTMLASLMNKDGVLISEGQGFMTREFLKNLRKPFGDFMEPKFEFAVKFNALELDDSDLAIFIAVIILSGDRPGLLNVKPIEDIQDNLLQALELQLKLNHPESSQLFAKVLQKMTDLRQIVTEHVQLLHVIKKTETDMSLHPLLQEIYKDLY

Target: T1, CREB regulated transcription coactivator 1 (Crtc1-Flag) (UniProt Q68ED7)
T1 sequence: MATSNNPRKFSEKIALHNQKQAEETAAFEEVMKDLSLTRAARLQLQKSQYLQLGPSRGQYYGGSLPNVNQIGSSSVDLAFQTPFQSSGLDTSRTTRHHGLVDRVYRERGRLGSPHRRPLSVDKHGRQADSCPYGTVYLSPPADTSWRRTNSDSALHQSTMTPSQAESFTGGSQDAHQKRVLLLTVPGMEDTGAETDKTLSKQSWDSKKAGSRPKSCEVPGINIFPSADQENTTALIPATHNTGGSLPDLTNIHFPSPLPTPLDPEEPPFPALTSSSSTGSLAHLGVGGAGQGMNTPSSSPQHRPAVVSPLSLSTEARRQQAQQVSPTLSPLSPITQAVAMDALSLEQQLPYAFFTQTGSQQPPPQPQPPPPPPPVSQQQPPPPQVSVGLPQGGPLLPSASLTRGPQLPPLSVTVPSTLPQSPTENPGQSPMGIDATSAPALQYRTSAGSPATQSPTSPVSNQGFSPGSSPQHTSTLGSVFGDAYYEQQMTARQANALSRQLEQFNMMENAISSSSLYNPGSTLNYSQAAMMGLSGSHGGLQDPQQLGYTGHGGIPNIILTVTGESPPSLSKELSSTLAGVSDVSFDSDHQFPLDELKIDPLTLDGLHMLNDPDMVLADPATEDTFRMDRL
Experiment: co-IP; Crtc1-Flag and Pparγ-HA co-transfected into 293T cells; lysate in IP lysis buffer, pre-cleared, precipitated with Flag or HA primary antibody overnight at 4°C and protein G agarose beads; western blot

“Peroxisome proliferator activated receptor γ (Pparγ-HA) (from UniProt P37238 1-505)” was tested, and the binding was “no binding”.
